Experiment [1] addresses Full length Ire1 (untagged) (human) (UniProt O75460). The experiment is described as follows: co-IP.
The next experiment has as its target T1, GST-tagged Bid (UniProt P55957).
T1 sequence: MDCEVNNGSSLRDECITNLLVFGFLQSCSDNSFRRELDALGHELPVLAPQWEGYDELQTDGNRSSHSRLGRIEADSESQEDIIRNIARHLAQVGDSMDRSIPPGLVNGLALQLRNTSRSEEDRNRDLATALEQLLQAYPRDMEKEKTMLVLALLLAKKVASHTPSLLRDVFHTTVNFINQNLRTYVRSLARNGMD
The experiment is described as follows: co-IP.

Protein sequences, listed by entry. Tags and fused reporters are not part of them. Lines headed by an entry give the natural chain unless they say otherwise; changes in a name come on top.
UniProt O75460: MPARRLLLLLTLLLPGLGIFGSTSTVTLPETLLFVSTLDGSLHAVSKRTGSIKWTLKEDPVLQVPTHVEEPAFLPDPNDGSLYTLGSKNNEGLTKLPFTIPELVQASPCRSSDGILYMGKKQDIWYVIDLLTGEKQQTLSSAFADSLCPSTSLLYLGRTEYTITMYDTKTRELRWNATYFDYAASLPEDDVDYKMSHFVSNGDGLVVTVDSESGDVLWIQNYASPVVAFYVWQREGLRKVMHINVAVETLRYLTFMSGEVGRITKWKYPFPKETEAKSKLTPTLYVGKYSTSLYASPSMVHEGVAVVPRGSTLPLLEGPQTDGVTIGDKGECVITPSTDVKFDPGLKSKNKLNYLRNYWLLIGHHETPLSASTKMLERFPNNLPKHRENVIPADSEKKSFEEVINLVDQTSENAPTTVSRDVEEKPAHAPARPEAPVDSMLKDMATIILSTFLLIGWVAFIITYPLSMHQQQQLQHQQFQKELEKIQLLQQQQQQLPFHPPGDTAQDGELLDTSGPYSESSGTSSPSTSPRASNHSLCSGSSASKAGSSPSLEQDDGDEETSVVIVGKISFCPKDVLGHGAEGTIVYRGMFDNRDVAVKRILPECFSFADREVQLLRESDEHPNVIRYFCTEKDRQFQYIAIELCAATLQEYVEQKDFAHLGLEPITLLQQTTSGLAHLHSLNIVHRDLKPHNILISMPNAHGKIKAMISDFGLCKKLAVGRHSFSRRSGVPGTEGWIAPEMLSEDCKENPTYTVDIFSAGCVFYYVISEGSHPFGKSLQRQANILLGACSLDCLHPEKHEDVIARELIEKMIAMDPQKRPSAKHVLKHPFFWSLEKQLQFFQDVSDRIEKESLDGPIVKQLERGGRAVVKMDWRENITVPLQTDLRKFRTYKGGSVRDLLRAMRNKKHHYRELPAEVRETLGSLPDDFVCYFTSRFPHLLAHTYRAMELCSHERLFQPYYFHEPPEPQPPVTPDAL
UniProt P10415: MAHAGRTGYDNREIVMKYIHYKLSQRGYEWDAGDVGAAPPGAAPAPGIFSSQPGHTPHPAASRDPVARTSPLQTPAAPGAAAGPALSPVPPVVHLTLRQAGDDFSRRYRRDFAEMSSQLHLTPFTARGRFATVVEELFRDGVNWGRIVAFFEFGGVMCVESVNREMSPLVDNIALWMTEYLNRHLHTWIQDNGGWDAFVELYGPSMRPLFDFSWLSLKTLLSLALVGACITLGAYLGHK
UniProt Q13323: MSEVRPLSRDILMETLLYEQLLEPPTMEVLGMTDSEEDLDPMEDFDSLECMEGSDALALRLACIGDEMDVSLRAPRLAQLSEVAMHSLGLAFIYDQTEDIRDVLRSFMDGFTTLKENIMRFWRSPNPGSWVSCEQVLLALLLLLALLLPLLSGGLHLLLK

The target in experiment [2] is T2, Bid fused with the GAL4 DNA binding domain (UniProt P55957).
T2 sequence: T1 sequence
Kind of experiment: two-hybrid.

Experiment [3] deals with Full length Ire1 (untagged) (human) (UniProt O75460). Kind of experiment: co-IP. The source holds these as a separate data set.

Where two headings read alike, the source gives them in different places. These are yes or no findings as the source states them, for the method shown. For some assays here: In cells and extracts the contact can be indirect. Some entries that bind do so weakly or less than the wild type. For some assays here: Tags and fused reporters may be left off the sequences shown.

On to “GST-tagged Bcl-2 (from UniProt P10415 1-239)”, for which the binding entry in experiment [1] is reported as “no binding”. On to “Full length Ire1 (untagged) (from UniProt O75460 19-977)”, for which the binding entry in the experiment with GST-tagged Bid is “binds”. As for “IRE1 fused with the GAL4 activation domain (from UniProt O75460 1-977)”, the binding result in experiment [2] is “binds”. Take “GST-tagged Bik (from UniProt Q13323 1-160)”: the binding result in experiment [1] is reported as “no binding”.

B1: GST-tagged Bid (protein, UniProt P55957 1-195)
chain: T1 sequence
For B1, the binding result in experiment [3] is given as “binds”.

These data come from publication doi:10.1101/572222.
